Where two headings read alike, the source gives them in different places. Some entries share one result that the patent states for a list of compounds. At least one structure is not confirmed: it was looked up by name or label, or the drawing left a doubt.
Target: T1, naturally occurring proton-gated cation channel in a HEK293 cell (Homo sapiens, UniProt P78348)
T1 construct: a naturally occurring proton-gated cation channel in a HEK293 cell; endogenous in cells; host or cells: HEK293
T1 sequence (P78348 1-528): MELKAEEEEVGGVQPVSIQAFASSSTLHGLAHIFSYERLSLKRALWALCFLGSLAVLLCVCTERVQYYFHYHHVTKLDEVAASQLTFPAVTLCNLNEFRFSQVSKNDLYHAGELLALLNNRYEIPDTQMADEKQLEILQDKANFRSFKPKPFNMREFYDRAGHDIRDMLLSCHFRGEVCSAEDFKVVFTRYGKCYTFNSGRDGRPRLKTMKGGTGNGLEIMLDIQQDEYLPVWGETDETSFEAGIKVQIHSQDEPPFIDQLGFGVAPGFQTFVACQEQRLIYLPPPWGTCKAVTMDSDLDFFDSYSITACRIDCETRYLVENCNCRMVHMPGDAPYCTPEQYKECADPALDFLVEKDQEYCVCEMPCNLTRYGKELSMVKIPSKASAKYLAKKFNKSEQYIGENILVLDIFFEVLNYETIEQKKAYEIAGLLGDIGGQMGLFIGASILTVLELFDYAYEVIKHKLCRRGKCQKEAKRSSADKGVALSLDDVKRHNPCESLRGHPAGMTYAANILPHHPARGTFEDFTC
Experiment: Patch clamp of whole cell currents elicited by a drop in extracellular pH in HEK293 cells
Type: cell-based
Conditions: read-out: IC50, inhibition of the proton activated response
Description: In this example the current flux induced by protons over the membrane of a naturally occurring proton-gated cation channel in a HEK293 cell was determined using patch clamp techniques.
Using this technique, the effects of the compounds for use according to the invention was investigated on whole cell currents elicited by a drop in extracellular pH from 7.4 to 6.5.

| IC50 (extracellular pH drop from 7.4 to 6.5, group IC50 below 100 nM) [µM] | IC50 (extracellular pH drop from 7.4 to 6.5, group IC50 below 1 μM (of from 100 nM to 1 μM)) [µM] | Structure (SMILES) |
| --- | --- | --- |
| < 0.1 |  | CCN1CCc2c(c(-c3ccccc3)cc3c2NC(=O)C3=NO)C1 [7-ethyl-5-phenyl-6,7,8,9-tetrahydro-1H-pyrrolo-[3,2-f]-isoquinoline-2,3-dione-3-oxim] |
|  | < 1 | CN1CCc2c(c(-c3ccccc3)cc3c2N(C)C(=O)C3=NO)C1 [5-phenyl-7-methyl-6-7-8-9-tetrahydro-1-methyl-pyrrolo-[3.2-f]-isoquinoline-2,3-dione-3-oxim] |

Source: US7288653B2, “Inhibitors of proton-gated cation channels and their use in the treatment of ischaemic disorders” (PainCeptor Pharma Corporation, priority 1999, dated 2007)
